# Assay results

The results are deposited in PubChem (AID504749; NCATS, 2011).

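A panel of P. falciparum strains inside erythrocytes is exposed to compounds for three days, then a DNA-binding dye reports the amount of parasite DNA. Each compound was titrated across a series from about 0.000037 to 29 µM. The number is the fitted AC50, the concentration giving a half-maximal change in signal; a lower value means higher potency, whether the curve shows a decrease or an increase. Calls follow the curve class and fit quality: every row here is inconclusive, covering signal-raising curves and weak, poorly fitted, partial or highest-dose-only inhibition curves.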

Values are in nM. All entries here are filed as inconclusive. These entries are mostly ones the record files as inconclusive; other results of the assay are not listed here. Potencies fitted to partial, single-point or poorly fitting curves are rough. The first word of each remark tells which way the curve ran; it can be opposite to the aim of the assay.

Fc1ccc(C(c2ccc(F)cc2)N2CCN(CC=Cc3ccccc3)CC2)cc1 [CP194] read fitted potency 16944 nM (inhibitor, single point). For Fc1ccc(C(c2ccc(F)cc2)N2CCN(CC=Cc3ccccc3)CC2)cc1 [CP266] the result was fitted potency 1200 nM (activator, partial curve, poor fit). For Fc1ccc(C(c2ccc(F)cc2)N2CCN(CC=Cc3ccccc3)CC2)cc1 [CP315] the result was fitted potency 19011 nM (inhibitor, single point). For Fc1ccc(C(c2ccc(F)cc2)N2CCN(CC=Cc3ccccc3)CC2)cc1 [CP269] the result was fitted potency 15101 nM (inhibitor, single point). C=CCSCC1Nc2cc(Cl)c(S(N)(=O)=O)cc2S(=O)(=O)N1 (centres undefined) [CP260] read fitted potency 17782 nM (inhibitor, single point). For C[C@]12CC[C@H](OS(=O)(=O)O)CC1=CCC1C2CC[C@]2(C)C(=O)CC[C@@H]12 (some centres undefined) [CP266] the result was fitted potency 477.5 nM (inhibitor, partial curve, poor fit).

CC[C@@]1(O)C(=O)OCc2c1cc1n(c2=O)Cc2cc3c([N+](=O)[O-])cccc3nc2-1 [CP203] read fitted potency 11995 nM (inhibitor, partial curve). For CC[C@@]1(O)C(=O)OCc2c1cc1n(c2=O)Cc2cc3c([N+](=O)[O-])cccc3nc2-1 [PAD] the result was fitted potency 10000 nM (inhibitor, single point). With CC[C@@]1(O)C(=O)OCc2c1cc1n(c2=O)Cc2cc3c([N+](=O)[O-])cccc3nc2-1 [CP268] the assay gave fitted potency 10690 nM (inhibitor, partial curve). For CC[C@@]1(O)C(=O)OCc2c1cc1n(c2=O)Cc2cc3c([N+](=O)[O-])cccc3nc2-1 [FAB9] the result was fitted potency 8912 nM (inhibitor, partial curve). Result for CC[C@@]1(O)C(=O)OCc2c1cc1n(c2=O)Cc2cc3c([N+](=O)[O-])cccc3nc2-1 [CP201] was fitted potency 16944 nM (inhibitor, single point). With CC[C@@]1(O)C(=O)OCc2c1cc1n(c2=O)Cc2cc3c([N+](=O)[O-])cccc3nc2-1 [CP211] the assay gave fitted potency 10690 nM (inhibitor, partial curve, poor fit).

CC[C@@]1(O)C(=O)OCc2c1cc1n(c2=O)Cc2cc3c([N+](=O)[O-])cccc3nc2-1 [DIV30] gave fitted potency 756.9 nM (inhibitor, full curve, poor fit). CC[C@@]1(O)C(=O)OCc2c1cc1n(c2=O)Cc2cc3c([N+](=O)[O-])cccc3nc2-1 [CP192] gave fitted potency 13459 nM (inhibitor, single point). Result for CC[C@@]1(O)C(=O)OCc2c1cc1n(c2=O)Cc2cc3c([N+](=O)[O-])cccc3nc2-1 [CP252] was fitted potency 10000 nM (inhibitor, single point). CC[C@@]1(O)C(=O)OCc2c1cc1n(c2=O)Cc2cc3c([N+](=O)[O-])cccc3nc2-1 [CP315] read fitted potency 19011 nM (inhibitor, single point). Result for CC[C@@]1(O)C(=O)OCc2c1cc1n(c2=O)Cc2cc3c([N+](=O)[O-])cccc3nc2-1 [JCK] was fitted potency 7080 nM (inhibitor, partial curve). Result for CC[C@@]1(O)C(=O)OCc2c1cc1n(c2=O)Cc2cc3c([N+](=O)[O-])cccc3nc2-1 [HB3] was fitted potency 10000 nM (inhibitor, single point).

With CC[C@@]1(O)C(=O)OCc2c1cc1n(c2=O)Cc2cc3c([N+](=O)[O-])cccc3nc2-1 [CP266] the assay gave fitted potency 15101 nM (inhibitor, single point). With CC[C@@]1(O)C(=O)OCc2c1cc1n(c2=O)Cc2cc3c([N+](=O)[O-])cccc3nc2-1 [PC15] the assay gave fitted potency 3981 nM (inhibitor, partial curve). With CC[C@@]1(O)C(=O)OCc2c1cc1n(c2=O)Cc2cc3c([N+](=O)[O-])cccc3nc2-1 [PC26] the assay gave fitted potency 19011 nM (inhibitor, single point). CC[C@@]1(O)C(=O)OCc2c1cc1n(c2=O)Cc2cc3c([N+](=O)[O-])cccc3nc2-1 [CP325] read fitted potency 849.2 nM (inhibitor, full curve, poor fit). CC[C@@]1(O)C(=O)OCc2c1cc1n(c2=O)Cc2cc3c([N+](=O)[O-])cccc3nc2-1 [PC49] gave fitted potency 10000 nM (inhibitor, partial curve, poor fit). For CC[C@@]1(O)C(=O)OCc2c1cc1n(c2=O)Cc2cc3c([N+](=O)[O-])cccc3nc2-1 [DIV17] the result was fitted potency 7569 nM (inhibitor, partial curve).

Result for CC[C@@]1(O)C(=O)OCc2c1cc1n(c2=O)Cc2cc3c([N+](=O)[O-])cccc3nc2-1 [CP262] was fitted potency 16944 nM (inhibitor, single point). With CC[C@@]1(O)C(=O)OCc2c1cc1n(c2=O)Cc2cc3c([N+](=O)[O-])cccc3nc2-1 [DIV14] the assay gave fitted potency 11995 nM (inhibitor, partial curve). CC[C@H](NC(C)C)[C@H](O)c1ccc(O)c(O)c1 [CP247] read fitted potency 11220 nM (inhibitor, partial curve). CC[C@H](NC(C)C)[C@H](O)c1ccc(O)c(O)c1 [DIV17] read fitted potency 11995 nM (inhibitor, partial curve, poor fit). With CC[C@H](NC(C)C)[C@H](O)c1ccc(O)c(O)c1 [PC15] the assay gave fitted potency 11220 nM (inhibitor, single point). With CC[C@H](NC(C)C)[C@H](O)c1ccc(O)c(O)c1 [W2] the assay gave fitted potency 19011 nM (inhibitor, single point).

CC[C@H](NC(C)C)[C@H](O)c1ccc(O)c(O)c1 [ICS] gave fitted potency 10000 nM (inhibitor, single point).

For reference, 4 entries once more:

With CC[C@H](NC(C)C)[C@H](O)c1ccc(O)c(O)c1 [DIV17] the assay gave fitted potency 11995 nM (inhibitor, partial curve, poor fit).
With Fc1ccc(C(c2ccc(F)cc2)N2CCN(CC=Cc3ccccc3)CC2)cc1 [CP194] the assay gave fitted potency 16944 nM (inhibitor, single point).
With CC[C@@]1(O)C(=O)OCc2c1cc1n(c2=O)Cc2cc3c([N+](=O)[O-])cccc3nc2-1 [CP192] the assay gave fitted potency 13459 nM (inhibitor, single point).
With Fc1ccc(C(c2ccc(F)cc2)N2CCN(CC=Cc3ccccc3)CC2)cc1 [CP266] the assay gave fitted potency 1200 nM (activator, partial curve, poor fit).